These are yes or no findings as the source states them, for the method shown. Binding seen in cells or lysates may run through a third protein. Some entries that bind do so weakly or less than the wild type. For some assays here: Where a sequence is shown, tags or fusion partners need not be part of it.
Columns and labels:
[1] = target: T1, endogenous DGCR8 protein in WT hMSCs (human (endogenous in hMSCs)) (UniProt Q8WYQ5); test: co-IP; endogenous Co-IP: WT hMSC lysate in CHAPS lysis buffer, pre-cleared, IP with an anti-DGCR8 antibody and Protein A/G-PLUS agarose beads overnight at 4 °C, blots of partners
T1 sequence: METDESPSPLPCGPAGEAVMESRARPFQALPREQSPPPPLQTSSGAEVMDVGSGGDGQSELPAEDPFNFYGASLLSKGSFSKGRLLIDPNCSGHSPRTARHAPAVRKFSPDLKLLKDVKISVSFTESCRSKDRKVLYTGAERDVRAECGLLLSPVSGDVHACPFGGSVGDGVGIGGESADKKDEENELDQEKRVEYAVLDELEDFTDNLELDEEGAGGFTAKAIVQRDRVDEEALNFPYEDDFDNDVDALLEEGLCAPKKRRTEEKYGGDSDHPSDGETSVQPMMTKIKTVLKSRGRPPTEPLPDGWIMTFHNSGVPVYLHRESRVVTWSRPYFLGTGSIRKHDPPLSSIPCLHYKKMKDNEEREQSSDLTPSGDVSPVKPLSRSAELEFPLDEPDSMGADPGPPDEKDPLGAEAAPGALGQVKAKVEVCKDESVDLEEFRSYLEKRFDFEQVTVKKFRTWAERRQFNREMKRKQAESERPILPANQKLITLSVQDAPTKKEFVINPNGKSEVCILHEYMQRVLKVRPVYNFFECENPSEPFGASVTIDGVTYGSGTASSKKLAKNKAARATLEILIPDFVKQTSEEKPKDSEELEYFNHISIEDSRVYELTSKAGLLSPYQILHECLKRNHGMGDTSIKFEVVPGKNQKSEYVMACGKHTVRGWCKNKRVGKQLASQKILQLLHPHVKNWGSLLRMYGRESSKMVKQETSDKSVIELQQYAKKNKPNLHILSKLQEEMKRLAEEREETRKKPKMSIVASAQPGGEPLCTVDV

By UniProt entry, the sequences of proteins in these tests, tags left out.
UniProt P45973: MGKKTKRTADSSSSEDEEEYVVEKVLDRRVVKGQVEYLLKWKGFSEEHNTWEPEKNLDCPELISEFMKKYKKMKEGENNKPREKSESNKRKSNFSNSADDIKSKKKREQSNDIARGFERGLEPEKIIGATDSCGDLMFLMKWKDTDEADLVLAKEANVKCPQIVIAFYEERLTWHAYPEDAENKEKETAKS

[2] = target: T2, Flag-tagged DGCR8 (DiGeorge syndrome critical region 8) (UniProt Q8WYQ5); test: co-IP; exogenous Co-IP: HEK293T cells transfected with Flag-DGCR8, CHAPS lysis buffer (120 mM NaCl, 0.3% CHAPS, 1 mM EDTA, 40 mM HEPES pH 7.5), 4 °C overnight, blots of endogenous partners
T2 sequence: T1 sequence

Substance	binding [1]	binding [2]
HP1α, endogenous in WT hMSCs (from UniProt P45973 1-191)	binds	–
HP1α (heterochromatin protein 1 alpha) (from UniProt P45973 1-191)	–	binds
